The list is a part of this screen's results and no random one: it gathers tests that were run many times, whatever their T/C, doses with no T/C, and many T/C values between a quarter and a half above the control. Further doses and runs are listed elsewhere. T/C gives the treated animals as a percentage of the vehicle group. Schedules are NCI's codes, taken here to give the interval after Q, in days (D) or hours (H), and the number of doses after X. Some doses have a count of surviving animals in place of a T/C: the source holds a T/C of zero for them, seemingly a mark for toxic or unscored doses. Some survivor counts are full or nearly so, which does not show that the dose was tolerated: the source hardly ever lists a survival T/C far under the control, and the zero likely stands for such cases as well. Survivors were counted at the toxicity check, usually on the fifth day, unless a day is given; later deaths do not show. Brackets with × give the number of equal values in this list. Some entries were tested several times; their values stand side by side, smallest first. Some molecules as drawn cover several salts, stereoisomers or complexes of the source; a dose is that of the sample tested. For survival time, this PubChem deposit counts one and a half times the control or more as active, and values a quarter to a half above the control carry no call in these data; other NCI protocols may use other cut-offs.
Tested on: BDF1 mice, s.c. Lewis lung carcinoma, T/C %
Assay: NCI In Vivo Anticancer Drug Screen. Data for tumor model Lewis Lung Carcinoma (subcutaneous) in B6D2F1 (BDF1) mice
In short: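 The value reflects a ratio in which the treated cohort's survival time or tumour size is compared against mice receiving only vehicle.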

[1] = T/C endpoint: median survival time, dose: 160.0 mg/kg/injection, schedule: Q01DX001 (ip), vehicle: Klucel (hydroxypropylcellulose) (HPC), higher T/C = longer survival
[2] = T/C endpoint: median survival time, dose: 6.25 mg/kg/injection, schedule: Q01DX009 (ip), vehicle: Klucel (hydroxypropylcellulose) (HPC), higher T/C = longer survival
[3] = T/C endpoint: median survival time, dose: 127.0 mg/kg/injection, schedule: Q01DX001 (ip), vehicle: saline with Tween-80, higher T/C = longer survival

O=NN(CCCl)C(=O)NC1CCC(O)CC1 (stereo unspecified)
survivor count (T/C endpoint: median survival time, dose: 20.0 mg/kg/injection, schedule: Q01DX001 (ip), vehicle: other, higher T/C = longer survival): 10 of 10 | T/C (T/C endpoint: median survival time, dose: 40.0 mg/kg/injection, schedule: Q01DX001 (ip), vehicle: other, higher T/C = longer survival): 136 % of control | survivor count (T/C endpoint: median survival time, dose: 80.0 mg/kg/injection, schedule: Q01DX001 (ip), vehicle: other, higher T/C = longer survival): 10 of 10 | survivor count [1]: 7 of 10 | survivor count (T/C endpoint: median survival time, dose: 160.0 mg/kg/injection, schedule: Q01DX001 (ip), vehicle: other, higher T/C = longer survival): 10 of 10

N#CC(Cc1ccccc1)C(=O)O (stereo unspecified)
survivor count (T/C endpoint: mean tumor weight, dose: 1000.0 mg/kg/injection, schedule: Q01DX011 (ip), vehicle: other, higher T/C = larger tumour): 0 of 6

O=c1cc[nH]c(=O)o1
T/C (T/C endpoint: median survival time, dose: 3.0 mg/kg/injection, schedule: Q01DX009 (ip), vehicle: water, higher T/C = longer survival): 134 % of control | T/C (T/C endpoint: median survival time, dose: 6.0 mg/kg/injection, schedule: Q01DX009 (ip), vehicle: water, higher T/C = longer survival): 143 % of control | T/C (T/C endpoint: median survival time, dose: 25.0 mg/kg/injection, schedule: Q01DX009 (ip), vehicle: water, higher T/C = longer survival): 142 % of control | survivor count (T/C endpoint: median survival time, dose: 48.0 mg/kg/injection, schedule: Q01DX009 (ip), vehicle: water, higher T/C = longer survival): 7 of 10 and 10 of 10 | survivor count (T/C endpoint: median survival time, dose: 50.0 mg/kg/injection, schedule: Q01DX008 (ip), vehicle: water, higher T/C = longer survival): 10 of 10 | survivor count (T/C endpoint: median survival time, dose: 50.0 mg/kg/injection, schedule: Q01DX009 (ip), vehicle: water, higher T/C = longer survival): 6 of 10 and 10 of 10 | survivor count (T/C endpoint: median survival time, dose: 100.0 mg/kg/injection, schedule: Q01DX008 (ip), vehicle: water, higher T/C = longer survival): 4 of 10 | survivor count (T/C endpoint: median survival time, dose: 100.0 mg/kg/injection, schedule: Q01DX009 (ip), vehicle: water, higher T/C = longer survival): 0 of 10

ClCCCN1CCCCC1CCl (stereo unspecified)
survivor count (T/C endpoint: median survival time, dose: 25.0 mg/kg/injection, schedule: Q04DX003 (ip), vehicle: saline, higher T/C = longer survival): 9 of 10 | survivor count (T/C endpoint: median survival time, dose: 50.0 mg/kg/injection, schedule: Q04DX003 (ip), vehicle: saline, higher T/C = longer survival): 4 of 10

C[n+]1ccc(Nc2ccc(NC(=O)c3ccc(Nc4cc[n+](C)c5ccc(N)cc45)cc3N)cc2)cc1
survivor count (T/C endpoint: mean tumor weight, dose: 25.0 mg/kg/injection, schedule: Q01DX011 (ip), vehicle: saline, higher T/C = larger tumour): 3 of 6 | T/C [2]: 142 % of control | survivor count (T/C endpoint: median survival time, dose: 25.0 mg/kg/injection, schedule: Q01DX009 (ip), vehicle: Klucel (hydroxypropylcellulose) (HPC), higher T/C = longer survival): 10 of 10 | survivor count (T/C endpoint: median survival time, dose: 50.0 mg/kg/injection, schedule: Q01DX009 (ip), vehicle: Klucel (hydroxypropylcellulose) (HPC), higher T/C = longer survival): 9 of 10

Cn1cnc([N+](=O)[O-])c1Sc1nc(N)nc2c1ncn2C1OC(CO)C(O)C1O (stereo unspecified)
survivor count (T/C endpoint: mean tumor weight, dose: 24.0 mg/kg/injection, schedule: Q01DX011 (ip), vehicle: other, higher T/C = larger tumour): 2 of 6 | survivor count (T/C endpoint: mean tumor weight, dose: 32.0 mg/kg/injection, schedule: Q01DX011 (ip), vehicle: other, higher T/C = larger tumour): 3 of 6

C=C1C(=O)OC2C1CCC(C)C1CCC(=O)OC12C (stereo unspecified)
survivor count [2]: 10 of 10 | survivor count (T/C endpoint: median survival time, dose: 12.5 mg/kg/injection, schedule: Q01DX009 (ip), vehicle: Klucel (hydroxypropylcellulose) (HPC), higher T/C = longer survival): 10 of 10

CC[C@H]1CN2CCc3cc(OC)c(OC)cc3[C@@H]2C[C@@H]1C[C@H]1NCCc2cc(OC)c(OC)cc21
T/C (T/C endpoint: mean tumor weight, dose: 3.0 mg/kg/injection, schedule: Q01DX011 (ip), vehicle: saline, evaluated on day 12, higher T/C = larger tumour): 129 % of control | survivor count (T/C endpoint: mean tumor weight, dose: 6.0 mg/kg/injection, schedule: Q01DX011 (ip), vehicle: saline, higher T/C = larger tumour): 3 of 6 | survivor count (T/C endpoint: mean tumor weight, dose: 12.0 mg/kg/injection, schedule: Q01DX011 (ip), vehicle: saline, higher T/C = larger tumour): 0 of 6

O=NN(CCCl)C(=O)NC1C2CC3CC(C2)CC1C3 (stereo unspecified)
survivor count (T/C endpoint: median survival time, dose: 20.0 mg/kg/injection, schedule: Q01DX001 (ip), vehicle: Klucel (hydroxypropylcellulose) (HPC), higher T/C = longer survival): 10 of 10 | survivor count (T/C endpoint: median survival time, dose: 40.0 mg/kg/injection, schedule: Q01DX001 (ip), vehicle: Klucel (hydroxypropylcellulose) (HPC), higher T/C = longer survival): 10 of 10 | T/C (T/C endpoint: median survival time, dose: 80.0 mg/kg/injection, schedule: Q01DX001 (ip), vehicle: Klucel (hydroxypropylcellulose) (HPC), higher T/C = longer survival): 141 % of control | T/C [3]: 141 % of control | survivor count [3]: 10 of 10 | survivor count [1]: 9 of 10 | survivor count (T/C endpoint: median survival time, dose: 191.0 mg/kg/injection, schedule: Q01DX001 (ip), vehicle: saline with Tween-80, higher T/C = longer survival): 8 of 10 and 10 of 10 | survivor count (T/C endpoint: median survival time, dose: 287.0 mg/kg/injection, schedule: Q01DX001 (ip), vehicle: saline with Tween-80, higher T/C = longer survival): 9 of 10 (2×) | survivor count (T/C endpoint: median survival time, dose: 320.0 mg/kg/injection, schedule: Q01DX001 (ip), vehicle: Klucel (hydroxypropylcellulose) (HPC), higher T/C = longer survival): 3 of 10 and 10 of 10 | survivor count (T/C endpoint: median tumor weight (est.), dose: 127.0 mg/kg/injection, schedule: Q01DX001 (ip), vehicle: DMSO, higher T/C = larger tumour): 1 of 10 on day 14 | survivor count (T/C endpoint: median tumor weight (est.), dose: 191.0 mg/kg/injection, schedule: Q01DX001 (ip), vehicle: DMSO, higher T/C = larger tumour): 0 of 10 on day 14 | survivor count (T/C endpoint: median tumor weight (est.), dose: 241.0 mg/kg/injection, schedule: Q01DX001 (ip), vehicle: saline with Tween-80, higher T/C = larger tumour): 3 of 10 on day 16 | survivor count (T/C endpoint: median tumor weight (est.), dose: 287.0 mg/kg/injection, schedule: Q01DX001 (ip), vehicle: DMSO, higher T/C = larger tumour): 0 of 10 on day 14 | survivor count (T/C endpoint: median tumor weight (est.), dose: 287.0 mg/kg/injection, schedule: Q01DX001 (sc), vehicle: olive oil, sesame oil, peanut oil, higher T/C = larger tumour): 5 of 10 on day 14
